The values that follow come from doi:10.1101/2024.12.17.629001.

The chains behind the UniProt entries cited, without tags or fusion partners.
UniProt P42336: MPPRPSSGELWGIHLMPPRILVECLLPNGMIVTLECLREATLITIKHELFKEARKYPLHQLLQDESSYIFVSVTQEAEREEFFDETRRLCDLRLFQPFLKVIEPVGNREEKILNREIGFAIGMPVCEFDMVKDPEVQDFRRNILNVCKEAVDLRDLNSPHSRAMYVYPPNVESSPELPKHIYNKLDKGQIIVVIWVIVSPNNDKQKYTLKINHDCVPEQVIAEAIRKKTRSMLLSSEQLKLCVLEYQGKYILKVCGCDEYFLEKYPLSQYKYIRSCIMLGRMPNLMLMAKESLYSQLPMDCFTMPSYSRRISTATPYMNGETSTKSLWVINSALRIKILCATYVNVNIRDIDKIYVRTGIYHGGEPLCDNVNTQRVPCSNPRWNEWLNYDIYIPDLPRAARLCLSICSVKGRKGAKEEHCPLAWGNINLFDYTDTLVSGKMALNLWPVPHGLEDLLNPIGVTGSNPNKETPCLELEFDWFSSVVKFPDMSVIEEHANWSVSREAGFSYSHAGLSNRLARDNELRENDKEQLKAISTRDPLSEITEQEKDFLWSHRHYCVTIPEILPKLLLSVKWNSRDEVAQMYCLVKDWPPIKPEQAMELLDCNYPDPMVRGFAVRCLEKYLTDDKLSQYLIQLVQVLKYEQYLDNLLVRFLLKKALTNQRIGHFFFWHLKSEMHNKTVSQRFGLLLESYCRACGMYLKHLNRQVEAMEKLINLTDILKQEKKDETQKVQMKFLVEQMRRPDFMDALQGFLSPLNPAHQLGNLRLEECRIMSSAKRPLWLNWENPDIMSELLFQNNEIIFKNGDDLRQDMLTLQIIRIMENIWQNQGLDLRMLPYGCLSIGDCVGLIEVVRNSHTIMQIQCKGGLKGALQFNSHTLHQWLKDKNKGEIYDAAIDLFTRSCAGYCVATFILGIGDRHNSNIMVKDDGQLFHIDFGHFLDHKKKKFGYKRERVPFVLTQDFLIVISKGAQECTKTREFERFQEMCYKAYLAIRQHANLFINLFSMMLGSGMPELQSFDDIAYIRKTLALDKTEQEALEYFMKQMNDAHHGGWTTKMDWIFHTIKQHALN

The target in the experiment is PI3K p110α (PIK3CA) wild type, LgBiT fusion, in live H358 cells (UniProt P42336). Kind of experiment: split reporter.

Results are given in words; binding and its absence hold for the method and conditions named. Binding seen in cells or lysates may run through a third protein. Some results given as binding are weak or reduced against the parent protein; the word gives no strength. Sequences can lack the tags named with a protein.

With “MRAS, SmBiT fusion, in live H358 cells (from UniProt O14807 1-208)”, the binding entry is on record as “binds”.

B1: RAS2 (TC21), SmBiT fusion, in live H358 cells (protein, UniProt P62070 1-204)
chain: MAAAGWRDGSGQEKYRLVVVGGGGVGKSALTIQFIQSYFVTDYDPTIEDSYTKQCVIDDRAARLDILDTAGQEEFGAMREQYMRTGEGFLLVFSVTDRGSFEEIYKFQRQILRVKDRDEFPMILIGNKADLDHQRQVTQEEGQQLARQLKVTYMEASAKIRMNVDQAFHELVRVIRKFQEQECPPSPEPTRKEKDKKGCHCVIF
Turning to B1, the binding result was “binds”.

B2: RRAS, SmBiT fusion, in live H358 cells (protein, UniProt P10301 1-218)
chain: MSSGAASGTGRGRPRGGGPGPGDPPPSETHKLVVVGGGGVGKSALTIQFIQSYFVSDYDPTIEDSYTKICSVDGIPARLDILDTAGQEEFGAMREQYMRAGHGFLLVFAINDRQSFNEVGKLFTQILRVKDRDDFPVVLVGNKADLESQRQVPRSEASAFGASHHVAYFEASAKLRLNVDEAFEQLVRAVRKYQEQELPPSPPSAPRKKGGGCPCVLL
As to B2, the binding result was “binds”.
